Values from PubChem BioAssay AID1259272 (Sanger Institute, 2017).

- Screen: 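Kinase knock-downs lethal to colorectal cancer cells, with or without anchor drugs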 (primary screen)
- System: SW1116 human colorectal cancer cells
- Knock-down reagent: siRNA pool against human genes
- Treatment: anchor drugs BYL719 (1 µM), cetuximab (5 µg/ml) or trametinib (10 nM), or DMSO vehicle; exposure length not given
- Read-out: 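Cell survival as a fraction of wells given a non-targeting pool, averaged over replicates; robust z-score without drug; synergy score for each of BYL719, cetuximab and trametinib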
- Scale: viability z-score, no drug: higher = more cells remaining; strongly negative means essential gene; viability, no drug: higher = more viable cells; synergy score with BYL719 and synergy score with cetuximab and synergy score with trametinib: higher = stronger synthetic-lethal synergy with the drug
- Active means: 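Called essential if the drug-free knock-down gives a robust viability z-score below -3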
- Calls: active = essential (knock-down alone); inactive = no change
The whole screen tested 794 reagents; shown is a random part of them. In the full data, 7 (0.88%) are marked active. 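Essential calls reflect knock-down without drug only, not synergy with drugs; drug exposure length not given.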 Viability is capped at 1. Not stated in the record: the amount of reagent, the time to read-out.

| target gene | viability z-score, no drug | viability, no drug (fraction of control) | synergy score with BYL719 | synergy score with cetuximab | synergy score with trametinib | call |
| --- | --- | --- | --- | --- | --- | --- |
| STRADB | -0.507 | 0.856 | -0.182 | -0.0296 | -0.0448 | inactive |
| GNE | 0.842 | 1 | 0.0611 | 0.1 | 0.107 | inactive |
| SF3B1 | -3.32 | 0.557 | -0.217 | -0.0692 | -0.263 | active |
| PDXK | 0.574 | 0.972 | -0.105 | -0.0719 | -0.198 | inactive |
| MAP3K21 | 0.187 | 0.93 | -0.00683 | -0.067 | 0.00233 | inactive |
| BRSK2 | 0.842 | 1 | -0.0723 | -0.0725 | -0.236 | inactive |
| TBCK | 0.842 | 1 | -0.0686 | 0.0472 | 0.0607 | inactive |
| BRD2 | 0.842 | 1 | -0.0199 | -0.0474 | 0.0238 | inactive |
| CALM3 | -1.03 | 0.8 | -0.093 | 0.019 | 0.134 | inactive |
| PGK2 | 0.842 | 1 | 0.0809 | 0.0217 | 0.0169 | inactive |
| SYK | -3.91 | 0.494 | -0.18 | -0.137 | 0.0435 | active |

Only “viability, no drug (fraction of control)” (3 entries from above):
BRSK2 = 1
TBCK = 1
BRD2 = 1

Further results:
| target gene | viability z-score, no drug | viability, no drug (fraction of control) | synergy score with BYL719 | synergy score with cetuximab | synergy score with trametinib | call |
| --- | --- | --- | --- | --- | --- | --- |
| TGFBR2 | -0.252 | 0.884 | -0.0445 | 0.0122 | 0.145 | inactive |
| ITPKA | -1.1 | 0.793 | -0.12 | -0.194 | 0.0899 | inactive |
| ALPK3 | 0.842 | 1 | -0.0788 | 0.0203 | -0.124 | inactive |
| SCYL1 | 0.842 | 1 | -0.0788 | -0.0757 | -0.344 | inactive |
| MAPK12 | 0.842 | 1 | -0.0179 | 0.042 | -0.198 | inactive |
| EEF2K | -2.81 | 0.611 | -0.165 | -0.00423 | -0.0762 | inactive |
| ERBB4 | 0.842 | 1 | -0.0788 | 0.0701 | 0.122 | inactive |
| KRAS | -2.98 | 0.593 | -0.16 | 0.0475 | 0.0946 | inactive |
| MAP3K1 | 0.0521 | 0.916 | 0.0408 | -0.153 | 0.0625 | inactive |
| BTK | -0.387 | 0.869 | -0.166 | -0.15 | 0.0156 | inactive |
| TBK1 | -2.19 | 0.677 | -0.103 | -0.114 | 0.0836 | inactive |
| PRKCH | -0.455 | 0.862 | -0.206 | -0.1 | -0.0131 | inactive |
| MAP2K6 | -0.697 | 0.836 | -0.0439 | -0.0112 | 0.0317 | inactive |
| PRKDC | -1.14 | 0.789 | -0.131 | -0.00294 | -0.0763 | inactive |
| PRKCB | -1.22 | 0.78 | -0.107 | -0.00873 | 0.0974 | inactive |
| POLR2B | -1.15 | 0.788 | -0.108 | -0.0574 | -0.147 | inactive |
| PHKA1 | 0.842 | 1 | -0.0641 | -0.000545 | -0.0612 | inactive |
| MAST3 | 0.842 | 1 | -0.0788 | -0.01 | 0.119 | inactive |
| PDK2 | 0.0381 | 0.914 | 0.0277 | -0.0788 | 0.0168 | inactive |
| MPP2 | 0.161 | 0.927 | 0.103 | 0.21 | 0.0733 | inactive |
| ACVR1 | 0.842 | 1 | 0.0111 | -0.0757 | 0.134 | inactive |
| CILK1 | -0.631 | 0.843 | -0.098 | -0.0918 | 0.091 | inactive |
| MED12 | -1.39 | 0.762 | -0.19 | -0.223 | -0.0368 | inactive |
